In patent publication US20130150294A1:
These are yes or no findings as the source states them, for the method shown. In cells and extracts the contact can be indirect. Some results given as binding are weak or reduced against the parent protein; the word gives no strength.

Amino acid sequences for entries named in this document (tags omitted). A change or cut given only in a name is not applied to a line headed by its entry.
UniProt P09626: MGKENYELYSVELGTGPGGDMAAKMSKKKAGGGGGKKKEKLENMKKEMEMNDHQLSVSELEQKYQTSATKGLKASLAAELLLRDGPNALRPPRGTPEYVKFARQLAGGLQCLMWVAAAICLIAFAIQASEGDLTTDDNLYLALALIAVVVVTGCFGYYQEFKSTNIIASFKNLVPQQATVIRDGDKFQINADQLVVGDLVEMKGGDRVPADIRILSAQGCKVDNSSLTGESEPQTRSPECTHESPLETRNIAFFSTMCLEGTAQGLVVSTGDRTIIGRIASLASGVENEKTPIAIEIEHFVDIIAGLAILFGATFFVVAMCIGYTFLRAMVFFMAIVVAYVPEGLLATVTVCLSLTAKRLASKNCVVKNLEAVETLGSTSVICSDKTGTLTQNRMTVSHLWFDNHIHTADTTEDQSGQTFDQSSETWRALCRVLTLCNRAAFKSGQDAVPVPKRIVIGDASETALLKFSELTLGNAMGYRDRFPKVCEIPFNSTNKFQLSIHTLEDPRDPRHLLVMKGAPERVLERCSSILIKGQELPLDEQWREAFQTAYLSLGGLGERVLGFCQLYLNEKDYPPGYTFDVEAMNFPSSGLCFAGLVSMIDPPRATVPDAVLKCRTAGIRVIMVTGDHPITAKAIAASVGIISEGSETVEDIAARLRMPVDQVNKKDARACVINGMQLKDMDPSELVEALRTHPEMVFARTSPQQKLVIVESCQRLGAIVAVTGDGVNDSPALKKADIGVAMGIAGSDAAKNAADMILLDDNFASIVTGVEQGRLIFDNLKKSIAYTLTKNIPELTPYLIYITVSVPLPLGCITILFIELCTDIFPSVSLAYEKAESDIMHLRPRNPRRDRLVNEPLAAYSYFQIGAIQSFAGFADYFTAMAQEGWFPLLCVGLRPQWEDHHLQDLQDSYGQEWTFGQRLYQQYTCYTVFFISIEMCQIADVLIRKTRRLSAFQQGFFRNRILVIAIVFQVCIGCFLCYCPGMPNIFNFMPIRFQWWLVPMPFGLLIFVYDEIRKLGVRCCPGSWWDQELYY

Target: Src of LLC-PK1 cells (endogenous) (pig) (UniProt K7GM45)
Assay: GST pulldown from cell lysates, Western blot

binding: binds
Substance: GST-H+/K+-CD3 (from UniProt P09626 348-778)
